This note sets out measurements from doi:10.1101/2022.03.02.482654.

Sequences of proteins named here, by UniProt entry; tags and fusion partners are left off. A change or cut given only in a name is not applied to a line headed by its entry.
UniProt F4IHY7: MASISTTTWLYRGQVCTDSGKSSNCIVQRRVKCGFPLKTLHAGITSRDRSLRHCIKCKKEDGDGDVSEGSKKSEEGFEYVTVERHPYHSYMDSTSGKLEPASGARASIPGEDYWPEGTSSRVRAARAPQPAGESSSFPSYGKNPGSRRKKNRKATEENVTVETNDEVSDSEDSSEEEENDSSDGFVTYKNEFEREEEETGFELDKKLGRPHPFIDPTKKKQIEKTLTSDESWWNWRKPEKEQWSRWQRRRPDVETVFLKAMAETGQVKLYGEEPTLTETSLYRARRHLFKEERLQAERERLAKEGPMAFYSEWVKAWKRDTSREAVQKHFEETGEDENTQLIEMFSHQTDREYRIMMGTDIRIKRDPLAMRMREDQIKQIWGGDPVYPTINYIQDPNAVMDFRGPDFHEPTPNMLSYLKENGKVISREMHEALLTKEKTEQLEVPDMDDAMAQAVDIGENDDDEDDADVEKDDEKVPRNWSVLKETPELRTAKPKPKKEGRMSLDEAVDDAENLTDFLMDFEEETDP
UniProt Q9SR02: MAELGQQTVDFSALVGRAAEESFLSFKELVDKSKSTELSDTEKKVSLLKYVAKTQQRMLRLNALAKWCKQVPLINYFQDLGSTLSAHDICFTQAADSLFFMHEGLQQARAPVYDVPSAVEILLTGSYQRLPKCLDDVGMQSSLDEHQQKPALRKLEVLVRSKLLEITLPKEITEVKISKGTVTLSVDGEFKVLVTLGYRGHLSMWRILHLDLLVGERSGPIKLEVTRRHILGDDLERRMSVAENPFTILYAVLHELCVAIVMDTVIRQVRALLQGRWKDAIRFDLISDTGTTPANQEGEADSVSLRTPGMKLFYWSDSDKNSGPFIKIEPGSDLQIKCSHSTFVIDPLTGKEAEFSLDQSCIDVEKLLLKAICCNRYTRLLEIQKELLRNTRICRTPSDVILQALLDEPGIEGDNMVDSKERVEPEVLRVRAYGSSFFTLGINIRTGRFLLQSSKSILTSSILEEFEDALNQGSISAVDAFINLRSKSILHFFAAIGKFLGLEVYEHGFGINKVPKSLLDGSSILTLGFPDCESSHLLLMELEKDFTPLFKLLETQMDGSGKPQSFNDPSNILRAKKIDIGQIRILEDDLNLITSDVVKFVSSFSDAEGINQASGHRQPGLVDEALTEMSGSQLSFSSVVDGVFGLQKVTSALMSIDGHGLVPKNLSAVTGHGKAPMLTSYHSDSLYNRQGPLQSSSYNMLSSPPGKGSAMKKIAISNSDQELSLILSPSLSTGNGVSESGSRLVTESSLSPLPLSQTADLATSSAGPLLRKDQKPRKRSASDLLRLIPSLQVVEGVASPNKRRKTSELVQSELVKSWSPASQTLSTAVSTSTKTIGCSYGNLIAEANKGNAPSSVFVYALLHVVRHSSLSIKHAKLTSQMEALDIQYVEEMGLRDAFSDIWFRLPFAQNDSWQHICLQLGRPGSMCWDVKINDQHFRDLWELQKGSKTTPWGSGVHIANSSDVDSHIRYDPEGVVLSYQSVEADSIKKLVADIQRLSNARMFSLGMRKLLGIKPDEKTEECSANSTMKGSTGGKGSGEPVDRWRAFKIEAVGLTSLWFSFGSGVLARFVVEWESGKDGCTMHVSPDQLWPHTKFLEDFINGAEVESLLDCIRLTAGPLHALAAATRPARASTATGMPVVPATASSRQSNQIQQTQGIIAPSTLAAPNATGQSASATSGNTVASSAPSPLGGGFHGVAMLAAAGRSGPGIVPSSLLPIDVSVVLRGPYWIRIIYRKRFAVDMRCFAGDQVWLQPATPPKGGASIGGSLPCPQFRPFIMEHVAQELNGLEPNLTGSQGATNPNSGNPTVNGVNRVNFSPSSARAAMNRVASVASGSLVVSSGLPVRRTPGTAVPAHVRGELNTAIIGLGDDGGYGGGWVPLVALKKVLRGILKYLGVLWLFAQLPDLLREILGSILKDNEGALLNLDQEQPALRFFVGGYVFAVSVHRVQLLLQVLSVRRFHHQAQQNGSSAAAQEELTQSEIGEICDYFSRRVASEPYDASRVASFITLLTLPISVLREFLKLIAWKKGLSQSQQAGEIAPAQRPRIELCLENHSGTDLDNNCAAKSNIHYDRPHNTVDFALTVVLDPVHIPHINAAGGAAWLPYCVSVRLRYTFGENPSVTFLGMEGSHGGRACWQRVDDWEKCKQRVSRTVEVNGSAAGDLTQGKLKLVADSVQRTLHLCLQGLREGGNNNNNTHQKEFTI

In this test the target is GST-HMR (HEMERA) (Arabidopsis thaliana) (UniProt F4IHY7). The experiment in a line: pull-down.

Results are given in words; binding and its absence hold for the method and conditions named. Binding seen in cells or lysates may run through a third protein. Binding calls can cover weak binding; strength is not graded here.

Consider HA-MED14 (from UniProt Q9SR02 1-1703), for which the binding entry is given as “binds”.
